{"source": "patent US7144887B2", "about": "“Substituted 1,2,3-triazolo[1,5-a]quinazolines for enhancing cognition” (Merck Sharp & Dohme Ltd., priority 1999, dated 2006)", "origin": "cited, not measured here", "conditions": "cited from earlier work", "note": "At least one structure is not confirmed: it was looked up by name or label, or the drawing left a doubt."}
{"smiles": "COC(=O)c1cc2c(cn1)[nH]c1ccccc12", "note": "[β-CCM]", "values": [{"measurement": "proconvulsant activity", "value": "proconvulsant"}]}
